According to PMC10819208:
No constants are given. Whether binding was seen depends on the method and setting. In cells and extracts the contact can be indirect. Some entries that bind do so weakly or less than the wild type.

The chains behind the UniProt entries cited, without tags or fusion partners.
UniProt P04608: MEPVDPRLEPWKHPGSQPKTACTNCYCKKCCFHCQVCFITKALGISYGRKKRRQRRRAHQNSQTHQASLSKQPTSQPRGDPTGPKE
UniProt P50750: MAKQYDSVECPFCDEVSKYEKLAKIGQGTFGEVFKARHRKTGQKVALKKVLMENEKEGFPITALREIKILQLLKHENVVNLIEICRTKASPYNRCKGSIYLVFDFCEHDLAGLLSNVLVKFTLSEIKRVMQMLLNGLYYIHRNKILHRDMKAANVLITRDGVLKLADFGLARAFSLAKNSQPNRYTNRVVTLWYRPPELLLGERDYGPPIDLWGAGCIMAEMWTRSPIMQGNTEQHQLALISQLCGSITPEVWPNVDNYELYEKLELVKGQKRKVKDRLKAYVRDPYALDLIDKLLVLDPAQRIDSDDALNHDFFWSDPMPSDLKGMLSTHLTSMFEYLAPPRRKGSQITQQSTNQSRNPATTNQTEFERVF

Target: Flag-Tat (HIV-1 transactivator protein Tat) (HIV-1) (UniProt P04608)
Assay: co-IP; anti-Flag M2 antibody on BSA-blocked protein A/G agarose beads, lysate of HEK293T cells transfected with Flag-Tat, overnight at 4 °C, IgG as control; cells treated beforehand with DMSO (0.1%), 110FA or 102FA (1 µM); eluate blotted for Cyclin T1 and Cdk9

Cdk9 (from UniProt P50750 1-372)
binding: binds
